Test results: the supplement of paper PMC7024190
Structures can show the parent of a compound that is named as a salt. Some of the results follow. Single values are uncertain here, since repeats match poorly.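 Human embryonic kidney cells were transiently transfected with a plasmid bearing a Renilla luciferase gene under the HSV-TK promoter. This first-round screen tests roughly ten thousand compounds for ones that increase reporter output.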

The compounds below were run on HEK 293FT (assay: log relative Renilla luciferase luminescence (reporter expression vs reference, reference not stated) (log (base not stated)); higher = higher recombinant reporter expression). Conditions: 10 µM; time after transfection 48 h.
Protocol: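 HEK 293FT cells transiently transfected with pRL-TK (Renilla luciferase) were treated with compounds at 10 uM and luminescence was read about 42 h later. Values are log relative Renilla luminescence (log base and reference not stated). Single-pass screen; ICCB Known Bioactives library.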

Compound | log
Nc1ncnc2c1c(I)cn2[C@@H]1O[C@H](CO)[C@@H](O)[C@H]1O [5-Iodotubercidin] | -1.04
N#CC(=Cc1ccc2[nH]ccc2c1)C(N)=C(C#N)C#N | -0.474
Cn1cc(C2=C(c3cn(CCCSC(=N)N)c4ccccc34)C(=O)NC2=O)c2ccccc21 | -1.03
CCCCC[C@H](O)/C=C/C=C\C/C=C\C/C=C\CCCC(=O)O | -0.0523
O=c1[nH]c2cc(C(F)(F)F)ccc2n1-c1cc(C(F)(F)F)ccc1O | -0.0206
O=Cc1c2[nH]c3ccccc3c2cc2[nH]c3ccccc3c12 [6-Formylindolo [3,2-B] carbazole] | 0.218
CCCCC/C=C\C/C=C\C/C=C\C/C=C\CCCC(=O)OC(CO)CO [2-Arachidonoylglycerol] | -0.107
COc1cc2nc(N3CCN(C(=O)c4ccco4)CC3)nc(N)c2cc1OC [Prazocin] | -0.0475
O=S(=O)(c1cccc2cnccc12)N1CCCNCC1 | 0.309
COc1ccc2cc1Oc1ccc(cc1)C[C@H]1c3cc(c(OC)cc3CCN1C)Oc1c(OC)c(OC)cc3c1[C@H](C2)N(C)CC3 [Tetrandrine] | 0.158
CCCCC/C=C\C/C=C\C/C=C\C/C=C\CCCC(=O)O[C@@H](CO)COC(=O)CCCCCCCCCCCCCCCCC [1-Stearoyl-2-arachidonoyl-glycerol] | 0.142
CCCCCCCCCCCCCCC(F)C(=O)O (centres undefined) [2-Fluoropalmitic acid] | 0.202
Cc1cnc(C(=O)NCCc2ccc(S(=O)(=O)NC(=O)NC3CCCCC3)cc2)cn1 [Glipizide] | 0.0444
C/C=C/C/C=C/CCC(=O)[C@H]1O[C@H]1C(N)=O [Cerulenin] | -0.185
O=C(O)c1ccccc1Nc1ccccc1 [N-Phenylanthranilic acid] | 0.205
CC(C)[C@@H](O)CC[C@@H](C)[C@H]1CC[C@H]2[C@@H]3CC=C4C[C@@H](O)CC[C@]4(C)[C@H]3CC[C@]12C [24(S)-Hydroxycholesterol] | 0.318
COc1ccc(CCN(C)CCCC(C#N)(c2ccc(OC)c(OC)c2)C(C)C)cc1OC (centres undefined) [Verapamil] | 0.0279

Structures above that have fluorine:
Compound | log
O=c1[nH]c2cc(C(F)(F)F)ccc2n1-c1cc(C(F)(F)F)ccc1O | -0.0206
CCCCCCCCCCCCCCC(F)C(=O)O (centres undefined) [2-Fluoropalmitic acid] | 0.202

The listing continues.

Compound | log
COc1cc2ncc(-c3ccccc3)nc2cc1OC | -0.368
CCCC[C@@H](C=O)NC(=O)[C@H](CC(C)C)NC(=O)[C@H](CC(C)C)NC(C)=O | -0.176
CCCCC/C=C\C/C=C\CC1OC1C/C=C\CCCC(=O)O (centres undefined) [8,9-Epoxyeicosatrienoic acid] | -0.0206
NC(=O)c1cccc(N)c1 [Aminobenzamide (3-ABA) [3-Aminobenzamide (3-ABA)]] | -0.0179
CCCCC/C=C\C[C@H](O)/C=C/C=C\C/C=C\CCCC(=O)O | 0.125
C#CCCCCCCCCCCCCCCCC(=O)O [17-Octadecynoic acid] | 0.0787
CCCCCC(O)CCC1C(O)CC(=O)C1CCCCCCC(=O)O (centres undefined) [13,14-Dihydro-prostaglandin E1] | -0.0108
COc1ccc(CCN(C)CCc2ccc(OC)c(OC)c2)cc1OC | 0.12
O=C[C@@H]1CCCN1C(=O)[C@@H]1CCCN1C(=O)OCc1ccccc1 [Z-Prolyl-prolinal] | 0.203
CN(C)C[C@H](O)Cn1c2ccc(Br)cc2c2cc(Br)ccc21 (racemic) [Wiskostatin] | -0.477
COc1cccc2c1C(=O)c1c(O)c3c(c(O)c1C2=O)C[C@@](O)(C(=O)CO)C[C@@H]3O[C@H]1C[C@H](N)[C@H](O)[C@H](C)O1 [Doxorubicin] | -0.406
Nc1cc(N2CCCCC2)nc(N)[n+]1OS(=O)(=O)[O-] [Minoxidil sulfate] | 0.233
CCCCCCCCCCCCC/C=C/[C@@H](O)[C@H](CO)NC(C)=O [C2 Ceramide] | 0.0671
C=CCNC1=C2C[C@@H](C)C[C@H](OC)[C@H](O)[C@@H](C)/C=C(\C)[C@H](OC(N)=O)[C@@H](OC)/C=C\C=C(/C)C(=O)NC(=CC1=O)C2=O [17-Allylamino-geldanamycin] | -0.514
O=C(O)CNC(=O)C(CS)Cc1ccccc1 (centres undefined) [Thiorphan] | 0.18
CC/C(=C(\c1ccccc1)c1ccc(OCCN(C)C)cc1)c1ccccc1 [Tamoxifen] | -0.182
CCC(C)[C@H](NC(=O)[C@H](CCCCN)NC(=O)[C@H](CCCCN)NC(=O)[C@H](C)NC(=O)[C@H](CC(C)C)NC(=O)[C@H](C)NC(=O)[C@H](C)NC(=O)[C@H](CC(C)C)NC(=O)[C@H](C)NC(=O)[C@H](CCCCN)NC(=O)[C@H](CC(C)C)NC(=O)[C@H](CC(N)=O)NC(=O)[C@@H](N)[C@@H](C)CC)C(=O)N[C@@H](CC(C)C)C(N)=O (some centres undefined) [Mastoparan] | 0.339
